These are yes or no findings as the source states them, for the method shown. Some binding calls cover weakened binding; strength is not graded here.
B1: EGFRD4-28Ab (antibody, V domains shown)
VH: EVQLQQSGPELVKPGASVKISCKASGYSFTGYYMHWVKQSHVKSLEWIGRINPYNGATIYNQNFKDKASLTVDKSSSTAYMELHSLTSEDSAVYYCARDDYEGAMDYWGQGTSVTVSS
VL: NIMMTQLPSSLAVSAGEKVTMSCKSSQSVLYISNQKNYLAWFQQKPGQSPKLLIYWASTRESGVPDRFTGSGSGTDFTLTISSVQAEDLAVYYCHQYFSSYTFGGGTKLEIK
B2: EGFRD4-30Ab (antibody, V domains shown)
VH: DVQLQESGPDLVKPSQSLSLTCTVTGYSITSGDSWHWIRQFPGNKLEWMGYIHYSGSTKYNPSLKSRISITRDTSKNQFFLQLNSVTTEDTATYYCASWFYYAMDYWGQGTSVTVSS
VL: ENVLTQSPAIMSASPGEKVTMTCRASSSVSSSYLHWFQQKSGASPKLWIYSTSNLASGVPARFSGSGSGTSYSLTISSVEAEDAATYYCQQYSGFPLTFGAGTKLELK
B3: EGFRD4-34Ab (antibody, V domains shown)
VH: QIQLVQSGPELKKPGETVKISCKASGYTFTNYGMNWVKQAPGKGLKWMGWINTYTGDPTYADDFKGRFAFSLETSASTAYLQINNLKNEDMATYFCARRISTMITTWFAYWGQGTLVTVSA
VL: DIQMTQSPASLSASVGETVTITCRASENIYSYLAWFQQRQGKSPQLLVYNAKTLTEGVPSRFSGSGSGTQFSLKINSLQPEDFGSYYCQHYQVTPYTFGGGTKLEIK
notes: also called Clone # 34
B4: 5C8 hybridoma clone antibody (mouse, culture supernatant) (antibody, V domains shown)
VH: EVQLQQSGPELVKTGASVKISCKASGYSFTGYYMHWVKQSHGKSLEWIGYINCYNGAINYNQKFKGKATFTVDTSSSTVYMQFNSLTSEDSAVYYCVRAGIHYDYDEAWFAYWGQGTLVTVSA
VL: QAVVTQESALTTSPGETVTLTCRSSTGPVIIRNYANWVQEKPDHLFTGLIGGTNNRAPGVPARFSGSLIGDKAALTITGAQTEDEAIYFCALWYNNHWVFGGGTKLTVL
notes: Mouse antibody from hybridoma supernatant; also called 5C8 clone; Clone 5C8

Columns and labels:
EGFR domain IV [1] = target: T1, EGFR domain IV (human, UniProt P00533 505-645); assay: SPR, EGFR domain IV immobilised on CM5 chip, IgG at 30, 10 and 3 nM, 25 C
T1 construct: Immobilised on a CM5 chip for SPR; also called domain IV of EGFR; EGFR D4

EGFR domain IV [2] = target: T1, EGFR domain IV; assay: SPR, EGFR domain IV immobilised on a CM5 chip (500 RU), IgG injected in HBS-EP+, 25 C
EGFR-His [3] = target: EGFR-His (UniProt P00533); assay: ELISA with various recombinant proteins
EGFR-His [4] = target: EGFR-His (UniProt P00533); assay: ELISA on coated recombinant proteins, title "Titer of purified mAb"

Binder	binding (EGFR domain IV [1])	binding (EGFR domain IV [2])	binding (EGFR-His [3])	binding (EGFR-His [4])
B1	binds	binds		
B2	binds	binds		
B3	binds	binds		
B4			binds	binds

Source: patent US20240228629A1 (CITY OF HOPE, published 2024)
